These are yes or no findings as the source states them, for the method shown. In cells and extracts the contact can be indirect. A result given as binding can be weak or reduced; the word gives no strength. Tags and fused reporters may be left off the sequences shown.
Target: T1, GTPBP5::FLAG (C-terminal FLAG-tagged GTPBP5) (human) (UniProt Q9H4K7)
T1 sequence: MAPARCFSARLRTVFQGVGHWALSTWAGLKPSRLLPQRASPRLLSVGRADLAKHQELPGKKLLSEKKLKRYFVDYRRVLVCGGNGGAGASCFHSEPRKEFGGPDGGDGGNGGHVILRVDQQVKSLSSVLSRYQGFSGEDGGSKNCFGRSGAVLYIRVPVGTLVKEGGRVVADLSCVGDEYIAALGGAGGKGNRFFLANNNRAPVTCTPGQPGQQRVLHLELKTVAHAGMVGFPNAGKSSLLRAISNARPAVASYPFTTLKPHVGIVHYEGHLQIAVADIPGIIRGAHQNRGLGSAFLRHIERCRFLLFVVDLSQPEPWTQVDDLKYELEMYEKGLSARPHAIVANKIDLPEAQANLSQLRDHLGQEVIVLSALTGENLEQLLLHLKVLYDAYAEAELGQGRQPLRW
Assay: co-IP; FLAG-IP from mitochondrial lysate, buffers with 5 mM MgCl2, elution with 3X FLAG peptide; input and eluate by western blot; no nucleotide or RNase added

binding: binds
Substance: MTG1 (GTPBP7) (human (endogenous in HEK293T))
